Measurements as given in US20200376034A1.
No constants are given. Whether binding was seen depends on the method and setting. Some binding calls cover weakened binding; strength is not graded here.

Sequences of proteins named here, by UniProt entry; tags and fusion partners are left off. A change or cut given only in a name is not applied to a line headed by its entry.
UniProt P20138: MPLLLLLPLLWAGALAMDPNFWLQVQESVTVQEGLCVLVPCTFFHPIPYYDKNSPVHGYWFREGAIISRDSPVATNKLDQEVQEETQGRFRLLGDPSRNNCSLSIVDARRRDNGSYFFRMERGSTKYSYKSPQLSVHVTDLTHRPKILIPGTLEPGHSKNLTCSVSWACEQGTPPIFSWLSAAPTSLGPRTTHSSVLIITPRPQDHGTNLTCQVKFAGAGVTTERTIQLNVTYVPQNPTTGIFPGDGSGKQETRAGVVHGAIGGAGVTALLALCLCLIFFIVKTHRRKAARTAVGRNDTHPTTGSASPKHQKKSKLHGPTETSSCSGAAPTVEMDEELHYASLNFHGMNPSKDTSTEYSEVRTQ

B1: ADI-11809 Fab (Fab, V domains shown)
VH: EVQLVESGGGLVQPGGSLRLSCAASGFTFPSYWMSWVRQAPGKGLEWVATIKRDGSEKGYVDSVKGRFTISRDNAKNSLYLQMNSLRAEDTAVYYCARPLNAGELDVWGQGTMVTVSS
VL: DIQMTQSPSTLSASVGDRVTITCRASQSISSWLAWYQQKPGKAPKLLIYEASSLESGVPSRFSGSGSGTEFTLTISSLQPDDFATYYCQQSQSYPPITFGGGTKVEIK
B2: ADI-11819 Fab (Fab, V domains shown)
VH: EVQLVESGGGLVKPGGSLRLSCAASGFTFSSYAMSWVRQAPGKGLEWVSSISSSSEGIYYADSVKGRFTISRDNAKNSLYLQMNSLRAEDTAVYYCAREGGPYYDSSGYFVYYGMDVWGQGTTVTVSS
VL: DIQMTQSPSTLSASVGDRVTITCRASNSISSWLAWYQQKPGKAPKLLIYEASSTKSGVPSRFSGSGSGTEFTLTISSLQPDDFATYYCQQYDDLPTFGGGTKVEIK
B3: ADI-10157 Fab (Fab, V domains shown)
VH: QVQLQESGPGLVKPSETLSLTCTVSGGSISSYYWSWIRQPPGKGLEWIGSIYYSGSTNYNPSLKSRVTISVDTSKNQFSLKLSSVTAADTAVYYCARVGGVYSTIETYGMDVWGQGTTVTVSS
VL: EIVMTQSPATLSVSPGERATLSCRASQSVSSNLAWYQQKPGQAPRLLIYGASTRATGIPARFSGSGSGTEFTLTISSLQSEDFAVYYCQQYTVYPPTFGGGTKVEIK

target: V domain of human CD33 (human) (UniProt P20138); assay: SPR, Fab captured, 37 C

binding, binds:
B1
B2
B3
